# This is one part of the list.
# B1: Epa11 (Candida glabrata) (protein)
# chain: MGSSHHHHHHSSGLVPRGSHMASSNAPNYPVGCSPSVGTQLTPGLSLEVYAYPMDGNNGYCWNATYKDPEFPRSGYLKNKLLGKADGVVGPLNFLAKNKDCSPKVDTLPAGFNFPQPITVTNFTMVLFGYLAPKQSGKYTFKLLADDLLLLNLGATNAFDCCNREATKNNLGEFLAYNLWPNQDKNVTVYLEKGVYYPLRLFFNNRDGGSQLDFSYYFNDSPAPLTDFSGMFFSVPDGAECPARI
# Assays:
# Test in all cases: glycan array binding signal (z-score within array); higher = stronger binding
# Conditions in all cases: glycan notation: IUPAC condensed, linker removed
# Glc(b1-4)Glc = molecular target: Glc(b1-4)Glc
# In short: (§1)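 Arrays were curated from the Consortium for Functional Glycomics database, 3228 in total, and kept only where the protein sequence was available. Binding is expressed as a within-array Z-score. This score was averaged across arrays of the same protein sequence at different concentrations or buffers and across linkers, and negative values can be read as non-binding.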
# Glc(b1-6)Glc = molecular target: Glc(b1-6)Glc
# In short: as §1
# GlcA(b1-3)Gal = molecular target: GlcA(b1-3)Gal
# In short: as §1
# GlcA(b1-3)GlcNAc = molecular target: GlcA(b1-3)GlcNAc
# In short: as §1
# GlcA(b1-6)Gal = molecular target: GlcA(b1-6)Gal
# In short: as §1
# [1] = molecular target: GlcA3S(b1-3)Gal(b1-4)GlcNAc(b1-2)Man
# In short: as §1
# [2] = molecular target: GlcA3S(b1-3)Gal(b1-4)GlcNAc(b1-3)Gal(b1-4)Glc
# In short: as §1
# [3] = molecular target: GlcNAc(a1-3)Gal(b1-4)GlcNAc
# In short: as §1
# [4] = molecular target: GlcNAc(a1-4)Gal(b1-3)GlcNAc
# In short: as §1
# [5] = molecular target: GlcNAc(a1-4)Gal(b1-4)GalNAc
# In short: as §1
# [6] = molecular target: GlcNAc(a1-4)Gal(b1-4)GlcNAc
# In short: as §1
# [7] = molecular target: GlcNAc(a1-4)Gal(b1-4)GlcNAc(b1-3)Gal(b1-4)Glc
# In short: as §1
# [8] = molecular target: GlcNAc(a1-4)Gal(b1-4)GlcNAc(b1-3)Gal(b1-4)GlcNAc
# In short: as §1
# [9] = molecular target: GlcNAc(a1-4)Gal(b1-4)GlcNAc(b1-3)Gal(b1-4)GlcNAc(b1-3)Gal(b1-4)GlcNAc
# In short: as §1
# [10] = molecular target: GlcNAc(a1-4)Gal(b1-4)GlcNAc(b1-3)Gal(b1-4)[Fuc(a1-3)]GlcNAc(b1-3)Gal(b1-4)[Fuc(a1-3)]GlcNAc
# In short: as §1
# [11] = molecular target: GlcNAc(a1-6)Gal(b1-4)GlcNAc
# In short: as §1
# [12] = molecular target: GlcNAc(b1-2)Gal(b1-3)GalNAc
# In short: as §1
# [13] = molecular target: GlcNAc(b1-2)Man(a1-3)[GlcNAc(b1-2)Man(a1-6)]Man(b1-4)GlcNAc(b1-4)GlcNAc
# In short: as §1
# [14] = molecular target: GlcNAc(b1-2)Man(a1-3)[GlcNAc(b1-2)Man(a1-6)]Man(b1-4)GlcNAc(b1-4)[Fuc(a1-6)]GlcNAc
# In short: as §1
# [15] = molecular target: GlcNAc(b1-2)Man(a1-3)[GlcNAc(b1-4)][GlcNAc(b1-2)Man(a1-6)]Man(b1-4)GlcNAc(b1-4)GlcNAc
# In short: as §1
# [16] = molecular target: GlcNAc(b1-2)Man(a1-3)[GlcNAc(b1-4)][GlcNAc(b1-2)Man(a1-6)]Man(b1-4)GlcNAc(b1-4)[Fuc(a1-6)]GlcNAc
# In short: as §1
# [17] = molecular target: GlcNAc(b1-2)[GlcNAc(b1-4)]Man(a1-3)[GlcNAc(b1-2)Man(a1-6)]Man(b1-4)GlcNAc(b1-4)GlcNAc
# In short: as §1
# [18] = molecular target: GlcNAc(b1-2)[GlcNAc(b1-4)]Man(a1-3)[GlcNAc(b1-4)][GlcNAc(b1-2)Man(a1-6)]Man(b1-4)GlcNAc(b1-4)GlcNAc
# In short: as §1
# [19] = molecular target: GlcNAc(b1-2)[GlcNAc(b1-4)]Man(a1-3)[GlcNAc(b1-4)][GlcNAc(b1-2)[GlcNAc(b1-6)]Man(a1-6)]Man(b1-4)GlcNAc(b1-4)GlcNAc
# In short: as §1
# [20] = molecular target: GlcNAc(b1-2)[GlcNAc(b1-4)]Man(a1-3)[GlcNAc(b1-4)][GlcNAc(b1-2)[GlcNAc(b1-6)]Man(a1-6)]Man(b1-4)GlcNAc(b1-4)[Fuc(a1-6)]GlcNAc
# In short: as §1
# [21] = molecular target: GlcNAc(b1-2)[GlcNAc(b1-6)]Man(a1-6)[GlcNAc(b1-2)Man(a1-3)]Man(b1-4)GlcNAc(b1-4)GlcNAc
# In short: as §1
# [22] = molecular target: GlcNAc(b1-2)[GlcNAc(b1-6)]Man(a1-6)[GlcNAc(b1-2)Man(a1-3)]Man(b1-4)GlcNAc(b1-4)[Fuc(a1-6)]GlcNAc
# In short: as §1
# [23] = molecular target: GlcNAc(b1-2)[GlcNAc(b1-6)]Man(a1-6)[GlcNAc(b1-4)][GlcNAc(b1-2)Man(a1-3)]Man(b1-4)GlcNAc(b1-4)GlcNAc
# In short: as §1
# GlcNAc(b1-3)Fuc = molecular target: GlcNAc(b1-3)Fuc
# In short: as §1
# GlcNAc(b1-3)Gal = molecular target: GlcNAc(b1-3)Gal
# In short: as §1
# [24] = molecular target: GlcNAc(b1-3)Gal(b1-3)GalNAc
# In short: as §1
# GlcNAc(b1-3)Gal(b1-4)Glc = molecular target: GlcNAc(b1-3)Gal(b1-4)Glc
# In short: as §1
# [25] = molecular target: GlcNAc(b1-3)Gal(b1-4)GlcNAc
# In short: as §1
# [26] = molecular target: GlcNAc(b1-3)Gal(b1-4)GlcNAc(b1-2)Man(a1-3)[GlcNAc(b1-3)Gal(b1-4)GlcNAc(b1-2)Man(a1-6)]Man(b1-4)GlcNAc(b1-4)GlcNAc
# In short: as §1
# [27] = molecular target: GlcNAc(b1-3)Gal(b1-4)GlcNAc(b1-2)Man(a1-3)[GlcNAc(b1-3)Gal(b1-4)GlcNAc(b1-2)Man(a1-6)]Man(b1-4)GlcNAc(b1-4)[Fuc(a1-6)]GlcNAc
# In short: as §1
# [28] = molecular target: GlcNAc(b1-3)Gal(b1-4)GlcNAc(b1-2)[GlcNAc(b1-3)Gal(b1-4)GlcNAc(b1-6)]Man(a1-6)[GlcNAc(b1-3)Gal(b1-4)GlcNAc(b1-2)Man(a1-3)]Man(b1-4)GlcNAc(b1-4)GlcNAc
# In short: as §1
# [29] = molecular target: GlcNAc(b1-3)Gal(b1-4)GlcNAc(b1-3)Gal(b1-4)GlcNAc
# In short: as §1
binder,measurement,setting,value
B1,glycan array binding signal (z-score),Glc(b1-4)Glc,-1.41
same,glycan array binding signal (z-score),Glc(b1-6)Glc,-0.513
same,glycan array binding signal (z-score),GlcA(b1-3)Gal,-0.056
same,glycan array binding signal (z-score),GlcA(b1-3)GlcNAc,-0.406
same,glycan array binding signal (z-score),GlcA(b1-6)Gal,0.675
same,glycan array binding signal (z-score),[1],0.356
same,glycan array binding signal (z-score),[2],-0.579
same,glycan array binding signal (z-score),[3],-0.193
same,glycan array binding signal (z-score),[4],-0.319
same,glycan array binding signal (z-score),[5],-0.891
same,glycan array binding signal (z-score),[6],0.787
same,glycan array binding signal (z-score),[7],-0.03
same,glycan array binding signal (z-score),[8],0.381
same,glycan array binding signal (z-score),[9],0.433
same,glycan array binding signal (z-score),[10],0.211
same,glycan array binding signal (z-score),[11],-0.229
same,glycan array binding signal (z-score),[12],-0.181
same,glycan array binding signal (z-score),[13],-0.237
same,glycan array binding signal (z-score),[14],-0.329
same,glycan array binding signal (z-score),[15],-0.051
same,glycan array binding signal (z-score),[16],-0.428
same,glycan array binding signal (z-score),[17],-0.457
same,glycan array binding signal (z-score),[18],-0.288
same,glycan array binding signal (z-score),[19],0.044
same,glycan array binding signal (z-score),[20],2.33
same,glycan array binding signal (z-score),[21],-0.476
same,glycan array binding signal (z-score),[22],-0.296
same,glycan array binding signal (z-score),[23],-2.25
same,glycan array binding signal (z-score),GlcNAc(b1-3)Fuc,-0.175
same,glycan array binding signal (z-score),GlcNAc(b1-3)Gal,-0.371
same,glycan array binding signal (z-score),[24],0.004
same,glycan array binding signal (z-score),GlcNAc(b1-3)Gal(b1-4)Glc,-0.537
same,glycan array binding signal (z-score),[25],-0.297
same,glycan array binding signal (z-score),[26],0.058
same,glycan array binding signal (z-score),[27],-0.134
same,glycan array binding signal (z-score),[28],-0.053
same,glycan array binding signal (z-score),[29],-0.214

# Nothing new here: an excerpt of the list.
binder,measurement,setting,value
B1,glycan array binding signal (z-score),[13],-0.237
same,glycan array binding signal (z-score),[14],-0.329
